# Experimental data as given in the supplement of paper PMC12595434, “Development of retinoid nuclear receptor pathway antagonists through targeting aldehyde dehydrogenase 1A3” (iScience, 2025).
# The chains behind the UniProt entries cited, without tags or fusion partners. Where a name states a change or a piece, a line headed by the entry shows the natural chain unless it says otherwise.
# UniProt Q8N6Q8: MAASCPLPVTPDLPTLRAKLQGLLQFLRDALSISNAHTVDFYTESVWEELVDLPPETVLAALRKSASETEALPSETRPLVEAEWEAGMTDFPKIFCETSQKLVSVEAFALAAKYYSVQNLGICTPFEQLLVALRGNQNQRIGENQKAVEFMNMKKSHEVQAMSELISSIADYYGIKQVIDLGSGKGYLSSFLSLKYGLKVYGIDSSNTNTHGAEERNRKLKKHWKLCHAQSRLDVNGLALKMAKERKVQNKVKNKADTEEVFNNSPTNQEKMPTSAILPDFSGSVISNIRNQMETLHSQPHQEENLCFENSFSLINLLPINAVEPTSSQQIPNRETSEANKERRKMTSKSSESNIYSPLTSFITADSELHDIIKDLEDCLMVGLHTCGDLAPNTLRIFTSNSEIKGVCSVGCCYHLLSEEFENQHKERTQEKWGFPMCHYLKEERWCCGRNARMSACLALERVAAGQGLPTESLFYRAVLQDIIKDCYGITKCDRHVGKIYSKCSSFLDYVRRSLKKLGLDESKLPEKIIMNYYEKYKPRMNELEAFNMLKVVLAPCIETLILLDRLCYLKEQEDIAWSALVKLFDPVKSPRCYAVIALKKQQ
# UniProt Q8N5A5: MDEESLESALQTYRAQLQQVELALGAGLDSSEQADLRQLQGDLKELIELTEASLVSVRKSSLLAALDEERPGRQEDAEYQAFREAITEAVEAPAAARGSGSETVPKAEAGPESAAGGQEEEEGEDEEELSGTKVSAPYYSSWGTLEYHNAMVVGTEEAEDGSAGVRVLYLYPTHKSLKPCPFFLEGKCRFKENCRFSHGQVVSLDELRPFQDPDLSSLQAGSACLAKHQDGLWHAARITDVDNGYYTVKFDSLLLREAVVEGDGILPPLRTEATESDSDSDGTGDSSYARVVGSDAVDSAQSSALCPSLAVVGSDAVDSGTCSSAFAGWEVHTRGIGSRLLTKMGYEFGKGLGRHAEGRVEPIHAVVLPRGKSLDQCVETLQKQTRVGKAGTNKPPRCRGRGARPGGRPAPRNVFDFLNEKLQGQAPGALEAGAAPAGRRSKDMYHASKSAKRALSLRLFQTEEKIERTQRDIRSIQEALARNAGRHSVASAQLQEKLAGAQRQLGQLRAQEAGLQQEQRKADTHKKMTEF
# UniProt Q8N2G8: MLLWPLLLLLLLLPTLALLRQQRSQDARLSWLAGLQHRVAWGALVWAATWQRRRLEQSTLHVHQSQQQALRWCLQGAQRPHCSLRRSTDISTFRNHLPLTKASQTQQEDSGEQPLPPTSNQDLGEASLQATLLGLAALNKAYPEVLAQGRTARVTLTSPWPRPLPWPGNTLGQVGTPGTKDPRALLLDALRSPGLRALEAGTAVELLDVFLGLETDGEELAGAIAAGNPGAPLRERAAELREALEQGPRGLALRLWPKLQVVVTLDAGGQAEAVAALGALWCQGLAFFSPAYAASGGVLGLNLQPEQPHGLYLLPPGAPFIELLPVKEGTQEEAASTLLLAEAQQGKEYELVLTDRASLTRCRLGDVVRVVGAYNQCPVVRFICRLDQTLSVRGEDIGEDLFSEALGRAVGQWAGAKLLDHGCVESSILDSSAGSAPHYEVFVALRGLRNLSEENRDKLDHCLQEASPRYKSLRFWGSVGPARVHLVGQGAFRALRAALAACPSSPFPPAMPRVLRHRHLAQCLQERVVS
# UniProt Q8IVH8: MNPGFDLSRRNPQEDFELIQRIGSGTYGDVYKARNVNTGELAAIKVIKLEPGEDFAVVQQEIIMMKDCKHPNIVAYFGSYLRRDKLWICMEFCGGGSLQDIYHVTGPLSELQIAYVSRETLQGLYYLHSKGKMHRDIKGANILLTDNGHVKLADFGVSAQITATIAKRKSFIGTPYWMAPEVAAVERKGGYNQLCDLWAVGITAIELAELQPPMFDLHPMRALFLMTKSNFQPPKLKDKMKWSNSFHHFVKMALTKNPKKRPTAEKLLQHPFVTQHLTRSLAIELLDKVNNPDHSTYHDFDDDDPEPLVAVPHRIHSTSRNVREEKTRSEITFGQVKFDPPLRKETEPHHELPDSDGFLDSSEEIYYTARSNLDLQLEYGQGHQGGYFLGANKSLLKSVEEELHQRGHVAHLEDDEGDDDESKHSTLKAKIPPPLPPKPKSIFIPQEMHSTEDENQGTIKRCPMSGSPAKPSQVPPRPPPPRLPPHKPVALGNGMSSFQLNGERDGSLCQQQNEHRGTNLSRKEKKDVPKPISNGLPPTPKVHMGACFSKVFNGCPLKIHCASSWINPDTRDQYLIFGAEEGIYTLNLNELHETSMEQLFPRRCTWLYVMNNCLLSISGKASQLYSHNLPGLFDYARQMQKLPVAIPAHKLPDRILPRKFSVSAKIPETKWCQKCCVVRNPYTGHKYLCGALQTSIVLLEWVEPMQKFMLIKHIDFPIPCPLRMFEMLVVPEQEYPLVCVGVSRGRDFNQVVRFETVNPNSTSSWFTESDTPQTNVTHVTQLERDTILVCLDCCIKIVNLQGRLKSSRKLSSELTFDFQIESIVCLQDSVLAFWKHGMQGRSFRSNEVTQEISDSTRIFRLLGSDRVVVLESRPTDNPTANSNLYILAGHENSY
# UniProt Q8N684: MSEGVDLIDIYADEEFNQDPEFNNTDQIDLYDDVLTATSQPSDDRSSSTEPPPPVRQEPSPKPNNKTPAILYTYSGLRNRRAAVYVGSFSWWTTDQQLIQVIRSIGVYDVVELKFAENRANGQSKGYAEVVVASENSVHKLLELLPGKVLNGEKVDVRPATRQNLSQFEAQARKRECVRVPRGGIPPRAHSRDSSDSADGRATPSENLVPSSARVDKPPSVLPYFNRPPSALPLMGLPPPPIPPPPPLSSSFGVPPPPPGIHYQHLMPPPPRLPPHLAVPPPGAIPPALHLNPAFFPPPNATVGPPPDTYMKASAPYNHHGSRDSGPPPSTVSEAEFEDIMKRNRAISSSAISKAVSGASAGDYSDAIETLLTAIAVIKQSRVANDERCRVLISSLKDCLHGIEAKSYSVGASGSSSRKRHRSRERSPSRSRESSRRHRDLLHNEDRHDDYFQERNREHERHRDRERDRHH
# UniProt Q8IXT5: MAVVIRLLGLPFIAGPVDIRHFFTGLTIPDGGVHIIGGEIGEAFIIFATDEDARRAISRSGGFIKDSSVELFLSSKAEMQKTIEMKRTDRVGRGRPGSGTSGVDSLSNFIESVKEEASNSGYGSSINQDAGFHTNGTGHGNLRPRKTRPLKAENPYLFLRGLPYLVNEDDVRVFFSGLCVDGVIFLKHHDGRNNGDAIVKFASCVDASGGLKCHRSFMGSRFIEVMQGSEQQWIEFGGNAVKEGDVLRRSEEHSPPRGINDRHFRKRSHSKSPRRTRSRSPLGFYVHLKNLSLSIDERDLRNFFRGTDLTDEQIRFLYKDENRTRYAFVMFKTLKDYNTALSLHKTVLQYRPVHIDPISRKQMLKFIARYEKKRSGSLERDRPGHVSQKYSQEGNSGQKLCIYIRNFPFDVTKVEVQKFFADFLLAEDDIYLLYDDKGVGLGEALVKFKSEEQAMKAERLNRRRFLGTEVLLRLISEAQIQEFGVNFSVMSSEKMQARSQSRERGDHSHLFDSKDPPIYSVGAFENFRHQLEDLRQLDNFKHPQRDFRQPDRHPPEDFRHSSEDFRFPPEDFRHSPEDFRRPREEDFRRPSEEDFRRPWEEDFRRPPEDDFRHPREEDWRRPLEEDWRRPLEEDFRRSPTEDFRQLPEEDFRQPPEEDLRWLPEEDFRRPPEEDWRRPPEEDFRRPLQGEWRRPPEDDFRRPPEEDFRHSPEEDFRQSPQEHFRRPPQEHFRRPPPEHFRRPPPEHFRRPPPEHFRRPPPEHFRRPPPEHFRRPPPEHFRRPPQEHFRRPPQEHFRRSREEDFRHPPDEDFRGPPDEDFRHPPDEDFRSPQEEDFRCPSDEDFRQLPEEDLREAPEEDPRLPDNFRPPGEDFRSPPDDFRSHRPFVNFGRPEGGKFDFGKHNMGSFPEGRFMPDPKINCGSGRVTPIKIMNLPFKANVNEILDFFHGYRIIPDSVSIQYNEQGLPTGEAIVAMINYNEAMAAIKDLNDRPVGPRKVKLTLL
# UniProt Q8N5F7: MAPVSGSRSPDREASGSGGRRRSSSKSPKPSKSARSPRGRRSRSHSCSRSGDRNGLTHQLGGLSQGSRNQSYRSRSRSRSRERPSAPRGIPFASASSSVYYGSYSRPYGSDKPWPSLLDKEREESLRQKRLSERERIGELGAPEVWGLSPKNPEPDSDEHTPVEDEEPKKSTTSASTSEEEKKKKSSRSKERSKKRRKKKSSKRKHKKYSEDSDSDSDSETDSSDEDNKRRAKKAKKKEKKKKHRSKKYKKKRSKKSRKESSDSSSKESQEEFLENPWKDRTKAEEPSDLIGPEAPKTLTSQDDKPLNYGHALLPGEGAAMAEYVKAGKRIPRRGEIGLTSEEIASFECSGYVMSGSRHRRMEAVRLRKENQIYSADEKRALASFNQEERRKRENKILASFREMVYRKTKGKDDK
# UniProt Q8IWL3: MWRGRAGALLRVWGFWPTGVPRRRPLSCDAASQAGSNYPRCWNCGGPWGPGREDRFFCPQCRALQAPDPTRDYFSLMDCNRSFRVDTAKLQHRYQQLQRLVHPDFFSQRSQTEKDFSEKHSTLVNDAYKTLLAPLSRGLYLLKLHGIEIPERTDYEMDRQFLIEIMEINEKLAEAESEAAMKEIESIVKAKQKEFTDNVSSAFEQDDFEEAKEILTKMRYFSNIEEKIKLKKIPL
# UniProt Q8N3D4: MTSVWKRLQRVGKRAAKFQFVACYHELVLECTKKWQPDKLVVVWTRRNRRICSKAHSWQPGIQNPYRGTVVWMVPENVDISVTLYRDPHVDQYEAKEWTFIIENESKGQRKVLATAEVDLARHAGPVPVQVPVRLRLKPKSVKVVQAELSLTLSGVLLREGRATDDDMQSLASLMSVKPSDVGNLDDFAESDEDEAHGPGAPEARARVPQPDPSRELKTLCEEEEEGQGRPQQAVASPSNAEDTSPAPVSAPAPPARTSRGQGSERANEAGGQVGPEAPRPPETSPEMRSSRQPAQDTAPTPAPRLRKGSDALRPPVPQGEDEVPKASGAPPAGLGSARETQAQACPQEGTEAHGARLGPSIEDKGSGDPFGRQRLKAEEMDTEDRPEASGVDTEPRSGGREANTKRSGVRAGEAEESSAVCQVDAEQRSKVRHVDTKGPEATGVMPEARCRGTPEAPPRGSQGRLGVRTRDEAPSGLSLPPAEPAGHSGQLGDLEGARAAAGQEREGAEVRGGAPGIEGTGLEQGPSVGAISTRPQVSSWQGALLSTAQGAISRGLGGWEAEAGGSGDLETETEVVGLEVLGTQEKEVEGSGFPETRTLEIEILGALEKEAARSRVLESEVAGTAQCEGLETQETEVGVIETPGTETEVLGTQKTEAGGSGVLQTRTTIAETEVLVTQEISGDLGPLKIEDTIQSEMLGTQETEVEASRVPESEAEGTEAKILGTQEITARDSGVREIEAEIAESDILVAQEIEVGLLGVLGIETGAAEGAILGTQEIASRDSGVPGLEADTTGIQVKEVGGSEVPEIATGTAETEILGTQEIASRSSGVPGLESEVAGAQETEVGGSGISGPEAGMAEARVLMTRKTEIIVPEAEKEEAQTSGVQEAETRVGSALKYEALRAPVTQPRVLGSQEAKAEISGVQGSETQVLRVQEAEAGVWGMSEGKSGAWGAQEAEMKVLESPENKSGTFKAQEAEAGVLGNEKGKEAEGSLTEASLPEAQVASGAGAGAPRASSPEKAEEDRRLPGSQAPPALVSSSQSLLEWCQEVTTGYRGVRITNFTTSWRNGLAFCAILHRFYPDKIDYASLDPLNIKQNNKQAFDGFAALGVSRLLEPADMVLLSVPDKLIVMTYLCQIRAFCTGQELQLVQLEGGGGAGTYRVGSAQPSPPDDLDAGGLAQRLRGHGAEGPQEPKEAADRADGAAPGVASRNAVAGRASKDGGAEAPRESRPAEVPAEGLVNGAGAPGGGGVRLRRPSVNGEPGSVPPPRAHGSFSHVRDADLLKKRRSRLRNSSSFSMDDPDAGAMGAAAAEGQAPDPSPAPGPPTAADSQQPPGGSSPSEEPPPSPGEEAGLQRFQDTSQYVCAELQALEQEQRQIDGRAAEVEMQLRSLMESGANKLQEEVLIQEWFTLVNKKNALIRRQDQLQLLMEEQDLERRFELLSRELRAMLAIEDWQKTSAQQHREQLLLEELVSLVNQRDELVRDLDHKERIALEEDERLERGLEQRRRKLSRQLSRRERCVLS
# UniProt Q86Y82: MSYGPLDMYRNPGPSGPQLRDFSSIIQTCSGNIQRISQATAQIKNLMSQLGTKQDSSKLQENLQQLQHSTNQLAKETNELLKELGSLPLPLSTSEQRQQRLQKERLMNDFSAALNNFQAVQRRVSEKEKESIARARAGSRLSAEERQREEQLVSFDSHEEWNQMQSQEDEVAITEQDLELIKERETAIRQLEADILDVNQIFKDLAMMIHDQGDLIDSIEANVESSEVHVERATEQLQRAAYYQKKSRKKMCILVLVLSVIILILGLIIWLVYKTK
# The list shows a part of the results. Single values of this set are uncertain.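 Many melting curves are irregular; where none melted, Tm was taken as 64 °C.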
# Compound: CCc1cnccc1C(=O)Nc1cc2c(cc1F)NC(=O)CC2
# Assay: melting temperature shift (DMSO Tm minus MBE1-treated Tm) in cellular thermal proteome profiling; higher = less thermal stabilization by MBE1 (negative = stabilized by MBE1)
# Settings: A375; MBE1 concentration: 100 nM
row,Target,melting temperature shift
1,UniProt Q86Y91,-0.568 °C
2,UniProt Q8N6Q8,-0.557 °C
3,ZGPAT (UniProt Q8N5A5),-0.032 °C
4,ANKRD44 (UniProt Q8N8A2),0.678 °C
5,UniProt Q8IY63,-1.09 °C
6,GHDC (UniProt Q8N2G8),-0.315 °C
7,MAP4K3 (UniProt Q8IVH8),0.568 °C
8,MIB1 (UniProt Q86YT6),0.711 °C
9,CPSF7 (UniProt Q8N684),-0.906 °C
10,FTSJ3 (UniProt Q8IY81),-0.455 °C
11,SIRT2 (UniProt Q8IXJ6),0.653 °C
12,ARFGAP2 (UniProt Q8N6H7),-0.159 °C
13,CHSY1 (UniProt Q86X52),0.611 °C
14,OXR1 (UniProt Q8N573),-0.369 °C
15,SIRT6 (UniProt Q8N6T7),-0.278 °C
16,UniProt Q8IXH7,-0.545 °C
17,SBF2 (UniProt Q86WG5),1.75 °C
18,UniProt Q8IVF7,-0.475 °C
19,UniProt Q8IXT5,1.04 °C

row,Target,melting temperature shift
1,SKA3 (UniProt Q8IX90),-0.179 °C
2,UniProt Q8N5F7,-4.47 °C
3,UniProt Q8N5Z5,-0.221 °C
4,RALGPS2 (UniProt Q86X27),0.702 °C
5,WDFY1 (UniProt Q8IWB7),-2.19 °C
6,HOOK3 (UniProt Q86VS8),0.33 °C
7,UniProt Q8N0Z3,1.06 °C
8,UniProt Q8N680,4.51 °C
9,PARG (UniProt Q86W56),0.647 °C
10,PLCD3 (UniProt Q8N3E9),0.94 °C
11,HSCB (UniProt Q8IWL3),-1.22 °C
12,EHBP1L1 (UniProt Q8N3D4),-0.0282 °C
13,VPS52 (UniProt Q8N1B4),-0.856 °C
14,METTL13 (UniProt Q8N6R0),-1.02 °C
15,STX12 (UniProt Q86Y82),-4.66 °C
16,UniProt Q8IUX7,-2.18 °C
17,UniProt Q8N1W1,-0.108 °C
18,RAVER1 (UniProt Q8IY67),0.0961 °C

# Same assay, conditions: A375; MBE1 concentration: 1 uM
row,Target,melting temperature shift
1,UniProt Q86Y91,-0.35 °C
2,UniProt Q8N6Q8,0.783 °C
3,ZGPAT (UniProt Q8N5A5),-0.365 °C
4,ANKRD44 (UniProt Q8N8A2),0.147 °C
5,UniProt Q8IY63,-0.339 °C
6,GHDC (UniProt Q8N2G8),0.53 °C
7,MAP4K3 (UniProt Q8IVH8),0.495 °C
8,MIB1 (UniProt Q86YT6),1.1 °C
9,CPSF7 (UniProt Q8N684),0.342 °C
10,FTSJ3 (UniProt Q8IY81),-0.826 °C
11,SIRT2 (UniProt Q8IXJ6),0.22 °C
12,ARFGAP2 (UniProt Q8N6H7),-0.723 °C
13,CHSY1 (UniProt Q86X52),0.464 °C
14,OXR1 (UniProt Q8N573),0.00671 °C
15,SIRT6 (UniProt Q8N6T7),-0.715 °C
16,UniProt Q8IXH7,-0.448 °C
17,SBF2 (UniProt Q86WG5),0.946 °C
18,UniProt Q8IVF7,-0.598 °C
19,UniProt Q8IXT5,2.65 °C

row,Target,melting temperature shift
1,SKA3 (UniProt Q8IX90),0.122 °C
2,UniProt Q8N5F7,2.86 °C
3,UniProt Q8N5Z5,0.771 °C
4,RALGPS2 (UniProt Q86X27),-0.318 °C
5,WDFY1 (UniProt Q8IWB7),0.727 °C
6,HOOK3 (UniProt Q86VS8),-0.263 °C
7,UniProt Q8N0Z3,-0.403 °C
8,UniProt Q8N680,0.107 °C
9,PARG (UniProt Q86W56),0.672 °C
10,PLCD3 (UniProt Q8N3E9),0.305 °C
11,HSCB (UniProt Q8IWL3),0.584 °C
12,EHBP1L1 (UniProt Q8N3D4),-0.336 °C
13,VPS52 (UniProt Q8N1B4),-0.889 °C
14,METTL13 (UniProt Q8N6R0),-0.0659 °C
15,STX12 (UniProt Q86Y82),-4.61 °C
16,UniProt Q8IUX7,-1.96 °C
17,UniProt Q8N1W1,-0.287 °C
18,RAVER1 (UniProt Q8IY67),0.506 °C
